Here are results for 68 molecules from PubChem BioAssay AID662 (National Center for Advancing Translational Sciences (NCATS), 2007).

The list shows a part of the results. These are further read-outs of the screen, such as a control signal, another cell line or another target. No call is given for them. The list favours compounds with an active or inconclusive main result. Potencies come from curve fits of mixed quality, noted in brackets.

The test can be described thus: Cell signaling CRE-BLA (Fsk stim). To be noted: CHO CRE-bla reporter (cAMP response element driving beta-lactamase), forskolin EC10, beta-lactamase ratio; measured here: 460 nm blue channel. In short, it runs like this:
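CRE-bla CHO cells stimulated with EC10 NKH 477 (water-soluble forskolin) and compound titrations, 3 h at 37C; beta-lactamase read with CCF4 after 2 h at room temperature. Activity from 460/530 nm emission ratio, AC50 values for positive or negative modulation.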
On to `COc1cc2c(cc1OC)C(C)N(C(=O)C1COc3ccccc3O1)CC2` (stereo not drawn), for which the AC50 (commonly the concentration at which the activity in the assay is half-maximal) was 15.8 µM [rising, partial curve].
Under `CCn1cc(C(=O)NCc2ccc3c(c2)OCO3)c2cc(OC)c(OC)cc2c1=O` stands 3.98 µM [rising, partial curve].
Consider `CCOC(=O)N1CCN(C(=O)c2ccc3c(=O)n(CCc4ccccc4)c(=S)[nH]c3c2)CC1`, for which the AC50 is 12.6 µM [rising, single point].
In the case of `O=C(C1CCCN(c2ncccn2)C1)N1CCc2ccccc21` (stereo not drawn), the AC50 is 2 µM [rising, partial curve].
Under `CCN(CC)C(=O)c1csc(Nc2ccc(C)cc2)n1` stands 5.01 µM [falling, single point].
With `COc1cc(NC(=O)COc2ccc(F)cc2)nc(OC)n1` the figure was 0.0501 µM [rising, partial curve, poor fit]; with `COc1ncc2nc(-c3ccc(F)cc3)c(=O)n(CCC#N)c2n1`, 10 µM [rising, partial curve].
With `Cc1nc2nc(SCC(=O)C(C)(C)C)[nH]c2cc1Br` the figure was 1 µM [rising, partial curve]; with `CCOc1ccc(CCNC(=O)c2oc3c(c2C)-c2[nH]ncc2CC3)cc1OCC`, 2 µM [rising, full curve]; with `COc1ccccc1N1CCN(c2ccc(-c3ccccc3)nn2)CC1`, 5.01 µM [rising, full curve].
On to `O=C(CN1c2cccc3cccc(c23)S1(=O)=O)NCc1ccc2c(c1)OCO2`, for which the AC50 was 0.2 µM [rising, partial curve].
As to `CC/C(=C(\c1ccccc1)c1ccc(OCCN(C)C)cc1)c1ccc(O)cc1`, the concentration at half-maximal activity (AC50) was 15.8 µM [falling, partial curve, poor fit].
For the molecule `CCOC(=O)C(NC(=O)c1ccc(OC)cc1)(OCC1(CC)COC1)C(F)(F)F` (stereo not drawn), the AC50 is 10 µM [falling, partial curve, poor fit].
With `CCC(=O)N/C(=N/c1nc(C)cc(C)n1)Nc1cccc(OC)c1` the figure was 12.6 µM [rising, single point]; with `CN1CCN(S(=O)(=O)c2ccc(NC(=O)c3ccc(Br)s3)cc2)CC1`, 10 µM [rising, single point].
With `CCN(CC(=O)Nc1ccccc1C(=O)OC)S(=O)(=O)c1ccccc1`, the AC50 was 10 µM [rising, single point].
Under `O=c1oc(-c2cccc(S(=O)(=O)N3CCOCC3)c2)nc2ccccc12` stands 0.1 µM [falling, full curve]; under `COC(=O)c1ccccc1NC(=O)N1c2ccccc2CC1C` (stereo not drawn), 12.6 µM [rising, partial curve].
With `COc1cc(CNC(=O)CCCC/C=C\C(C)C)ccc1O` the figure was 31.6 µM [falling, single point].
With `CNCCC=C1c2ccccc2CCc2ccccc21` the figure was 12.6 µM [falling, single point]; with `CCNc1nc(N)nc(Oc2ccc(OCCOc3ccc(Cl)cc3Cl)nn2)n1`, 6.31 µM [rising, partial curve]; with `O=C(CSC1=Nc2ccccc2C2=NC(CC(=O)NCc3ccco3)C(=O)N12)NCC1CCCO1` (stereo not drawn), 0.0794 µM [falling, full curve, poor fit].
Regarding `CSC1=C(C#N)C(c2cccc(Br)c2)CC(=O)N1` (stereo not drawn), the AC50 was 3.98 µM [falling, partial curve].
With `O=C(Nc1cccc2nsnc12)c1cccs1` the figure was 10 µM [rising, partial curve].
With `O=C(O)CC(C(=O)O)c1cn(Cc2ccccc2)c2ccccc12` (stereo not drawn) the figure was 3.98 µM [falling, partial curve].
With `Cc1onc(-c2ccccc2Cl)c1C(=O)Nc1cccc2nsnc12` the figure was 20 µM [rising, partial curve]; with `Cc1ccccc1-n1nc(C)c2cc(C(=O)N3CCN(S(=O)(=O)c4ccccc4)CC3)sc21`, 10 µM [falling, partial curve]; with `COc1cc(-c2nnc3sc(-c4ccncc4)nn23)cc(OC)c1OC`, 2.51 µM [rising, full curve].
`O=C(CC1Nc2ccccc2NC1=O)NCC1COc2ccccc2O1` (stereo not drawn): the AC50 is 3.16 µM [falling, single point].
With `Cc1csc(NC(=O)CCCSc2nc3ccccc3s2)n1` the figure was 3.98 µM [falling, partial curve]; with `Cc1ccccc1CS(=O)(=O)c1nnc([C@H](CC(C)C)NC(=O)OC(C)(C)C)o1`, 7.94 µM [falling, partial curve].
`CC(C)OC(=O)CSc1nc(N)c(C#N)c(-c2cccs2)c1C#N`: the half-maximal activity concentration (AC50) is 7.94 µM [rising, partial curve].
With `N=c1c(S(=O)(=O)c2ccccc2)cc2c(=O)n3ccccc3nc2n1CCN1CCOCC1` the figure was 10 µM [rising, partial curve].
As to `COc1ccccc1CCn1c(=O)c(-c2ccccc2)nc2cncnc21`, the AC50 is 10 µM [rising, partial curve].
With `O=C(NCCc1ccc(Cl)cc1)C1CCN(S(=O)(=O)c2cccc3nonc23)CC1` the figure was 0.251 µM [falling, partial curve]; with `COc1ccc(C(=O)Nc2ccc(-c3ccc(C)o3)cc2)cc1S(=O)(=O)N1CCOCC1`, 10 µM [falling, partial curve]; with `C=CCc1cccc2cc(C(=O)NC)c(=O)oc12`, 25.1 µM [rising, single point].
Regarding `O=c1nc(C(F)(F)F)nc2ccccn12`, the concentration at half-maximal activity (AC50) is 25.1 µM [rising, single point].
As to `CCn1cnc2sc(C(=O)N(Cc3ccc(N(C)C)cc3)Cc3ccco3)c(C)c2c1=O`, the AC50 was 5.01 µM [rising, full curve, poor fit].
With `Cc1ccc(-n2nnnc2SCC(=O)NC(=O)Nc2ccc3c(c2)OCCO3)cc1` the figure was 5.01 µM [falling, single point]; with `O=C(COC(=O)c1ccc(S(=O)(=O)N2CCCC2)cc1)NCc1ccccc1`, 5.01 µM [rising, single point].
Under `COc1ccc(CCNC(=O)c2cc(-c3cccs3)on2)cc1OC` stands 1 µM [rising, single point].
On to `C=CCn1c(SCc2ccc(Cl)cc2)nc2c1c(=O)[nH]c(=O)n2C`, for which the AC50 is 10 µM [rising, partial curve].
With `CCOc1cc(C(=O)Nc2ncccn2)cc(OCC)c1OCC` the figure was 0.00398 µM [falling, full curve, poor fit]; with `CN(C)C(=O)c1ccc(-c2ccc3ncnc(NCc4ccccc4)c3c2)cc1`, 7.94 µM [rising, partial curve]; with `CCOC(=O)c1ccccc1NC(=O)Cn1cnc2c(oc3ccccc32)c1=O`, 3.16 µM [rising, full curve, poor fit].
Take `CC12CCC(=O)N1C(C(=O)OCC(=O)Nc1sccc1C#N)CS2` (stereo not drawn): the AC50 is 3.98 µM [falling, single point].
For the molecule `COC(=O)c1c(NC(=O)CCCC(=O)O)sc(C)c1C`, the half-maximal activity concentration (AC50) was 10 µM [rising, partial curve].
Under `CCN(CC)CCN1C(=O)C(O)=C(C(=O)c2ccc(C)o2)C1c1ccccn1` (stereo not drawn) stands 1.26 µM [rising, partial curve].
Under `CCCc1nc(SC2CCCC2)c2c(=O)n(C)c(=O)n(C)c2n1` stands 2 µM [rising, full curve]; under `Fc1cnc(N2CCOCC2)nc1N1CCc2ccccc21`, 12.6 µM [rising, single point].
With `C=CCn1c(SCC(=O)c2ccc(O)c(O)c2)nnc1-c1ccccc1OC` the figure was 0.316 µM [falling, full curve]; with `Clc1ccc(Cl)c(Nc2ccnc(SCc3ccccc3)n2)c1`, 3.16 µM [rising, single point].
With `CCn1c(SC/C=C/c2ccccc2)nnc1-c1cccs1`, the AC50 was 0.316 µM [falling, full curve, poor fit].
Under `CN(C)C(=O)c1ccc(-c2cncnc2NC2CCNCC2)cc1` stands 12.6 µM [rising, partial curve, poor fit]; under `CC(C)C(=O)N1CCC(CN=Cc2c(O)n(C3CCCCC3)c(=O)n(C3CCCCC3)c2=O)CC1`, 25.1 µM [falling, single point].
Consider `CCCCCCCCCCCCCCCCCC(=O)O[C@H](CC(=O)O)C[N+](C)(C)C`, for which the AC50 is 12.6 µM [falling, single point].
On to `CCOC(=O)C1CCCN(C(=O)c2cncc(Br)c2)C1` (stereo not drawn), for which the half-maximal activity concentration (AC50) was 2 µM [falling, partial curve].
Take `Cc1noc(C)c1-c1nccc(N2CCOCC2)n1`: the AC50 was 5.01 µM [rising, full curve].
As to `Cc1cc(N2CCOCC2)c2c(N)c(Br)cc(C)c2n1`, the AC50 is 0.398 µM [rising, partial curve].
With `CC1CN(c2ccccc2)C(=O)CS1` (stereo not drawn) the figure was 15.8 µM [falling, single point].
With `Cc1cc2cc(CCNC(=O)c3c(-c4ccccc4Cl)noc3C)c(=O)[nH]c2cc1C` the figure was 12.6 µM [rising, single point]; with `Nc1c(C(=O)OCC2CCCO2)c2nc3ccccc3nc2n1C1CCCCC1` (stereo not drawn), 10 µM [rising, partial curve].
Under `COc1ccc(-c2nc(C#N)c(NC(C)C)o2)cc1` stands 10 µM [rising, partial curve, poor fit]; under `Cc1ccc(S(=O)(=O)Nc2cccc3ncccc23)s1`, 12.6 µM [rising, single point].
Take `N#Cc1nc(-c2ccc(Cl)cc2)oc1NCc1ccco1`: the AC50 is 12.6 µM [rising, partial curve].
Turning to `COc1cc(OC)c(/C=C2/C(=O)Nc3ccccc32)c(OC)c1`, the AC50 is 12.6 µM [rising, partial curve].
Under `Cn1c2ccccc2c2c(C(=O)N3CCN(c4ccccn4)CC3)cn(C3CCCC3)c(=O)c21` stands 10 µM [rising, partial curve, poor fit].
